From paper PMC2947522
Results are given in words; binding and its absence hold for the method and conditions named. For some of these results: In cells and extracts the contact can be indirect. Some binding calls cover weakened binding; strength is not graded here. For some of these results: Tags and fused reporters may be left off the sequences shown.

Sequences of proteins named here, by UniProt entry; tags and fusion partners are left off. A change or cut given only in a name is not applied to a line headed by its entry.
UniProt Q15797: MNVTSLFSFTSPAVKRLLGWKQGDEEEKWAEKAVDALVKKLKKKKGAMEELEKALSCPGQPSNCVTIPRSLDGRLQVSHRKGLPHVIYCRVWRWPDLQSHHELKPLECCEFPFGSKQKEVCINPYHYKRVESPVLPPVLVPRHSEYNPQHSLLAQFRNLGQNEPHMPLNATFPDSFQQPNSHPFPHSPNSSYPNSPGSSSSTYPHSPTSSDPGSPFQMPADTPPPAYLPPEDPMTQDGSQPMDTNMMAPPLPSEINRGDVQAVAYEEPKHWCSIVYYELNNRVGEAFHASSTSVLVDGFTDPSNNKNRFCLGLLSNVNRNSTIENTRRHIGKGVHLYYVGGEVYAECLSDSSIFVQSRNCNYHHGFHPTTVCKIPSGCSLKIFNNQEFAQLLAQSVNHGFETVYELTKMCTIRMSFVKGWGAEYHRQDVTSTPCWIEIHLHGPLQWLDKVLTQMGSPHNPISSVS
UniProt P28867: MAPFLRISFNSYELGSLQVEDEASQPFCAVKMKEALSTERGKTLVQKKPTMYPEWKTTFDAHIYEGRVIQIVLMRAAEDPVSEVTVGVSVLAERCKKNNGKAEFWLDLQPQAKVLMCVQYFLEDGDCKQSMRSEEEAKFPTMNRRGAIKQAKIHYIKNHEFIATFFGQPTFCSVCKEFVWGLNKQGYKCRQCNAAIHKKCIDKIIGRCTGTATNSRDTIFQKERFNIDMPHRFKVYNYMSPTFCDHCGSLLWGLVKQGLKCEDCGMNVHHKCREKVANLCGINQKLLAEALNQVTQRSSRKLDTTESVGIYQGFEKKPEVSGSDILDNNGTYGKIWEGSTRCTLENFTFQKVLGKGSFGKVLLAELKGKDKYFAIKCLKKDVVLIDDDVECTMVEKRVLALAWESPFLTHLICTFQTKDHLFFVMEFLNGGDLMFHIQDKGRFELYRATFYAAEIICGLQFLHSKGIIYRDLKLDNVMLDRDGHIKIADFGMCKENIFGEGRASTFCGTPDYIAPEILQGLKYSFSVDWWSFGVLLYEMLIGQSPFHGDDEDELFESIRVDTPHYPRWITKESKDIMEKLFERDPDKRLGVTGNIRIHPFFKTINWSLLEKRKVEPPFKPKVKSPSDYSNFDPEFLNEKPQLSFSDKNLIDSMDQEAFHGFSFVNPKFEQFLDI

B1: Flag-tagged JunD (WT: full-length) (protein, UniProt P15066 1-341)
chain: METPFYGEEALSGLAAGASSVAGATGAPGGGGFAPPGRAFPGAPPTSSMLKKDALTLSLAEQGAAGLKPGSATAPSALRPDGAPDGLLASPDLGLLKLASPELERLIIQSNGLVTTTPTSTQFLYPKVAASEEQEFAEGFVKALEDLHKQSQLGAATAATSGAPAPPAPADLAATPGATETPVYANLSSFAGGAGPPGGAATVAFAAEPVPFPPPPGALGPPPPPHPPRLAALKDEPQTVPDVPSFGDSPPLSPIDMDTQERIKAERKRLRNRIAASKCRKRKLERISRLEEKVKTLKSQNTELASTASLLREQVAQLKQKVLSHVNSGCQLLPQHQVPAY
B2: V5-tagged ΔFosB (full-length) (protein, UniProt P13346-2 1-237)
chain: MFQAFPGDYDSGSRCSSSPSAESQYLSSVDSFGSPPTAAASQECAGLGEMPGSFVPTVTAITTSQDLQWLVQPTLISSMAQSQGQPLASQPPAVDPYDMPGTSYSTPGLSAYSTGGASGSGGPSTSTTTSGPVSARPARARPRRPREETLTPEEEEKRRVRRERNKLAAAKCRNRRRELTDRLQAETDQLEEEKAELESEIAELQKEKERLEFVLVAHKPGCKIPYEEGPGPGPLAE

Assays:
GST-Smad1 fusion protein [1] = target: GST-Smad1 fusion protein (UniProt Q15797); test: pull-down; GST-Smad1 coupled to Glutathione-Sepharose, incubated with mPOB lysate (20 mM HEPES-KOH pH 7.5, 150 mM NaCl, 1% Triton-X100) for 1 h at 4 C, washed three times; endogenous PKCδ detected by Western blot; only the target purified
GST-Smad1 fusion protein [2] = target: GST-Smad1 fusion protein (UniProt Q15797); test: pull-down; GST-Smad1 coupled to Glutathione-Sepharose, incubated with Flag-JunD (WT or C-terminally truncated) or V5-ΔFosB; washed; detected by Western blot with anti-Flag or anti-V5; only the target purified
Myc-tagged Smad1 = Myc-tagged Smad1 (UniProt Q15797); test: DNA precipitation assay; nuclear lysates of mPOBs co-transfected with V5-ΔFosB, Flag-JunD (WT, Δ1 or Δ2) and Myc-Smad1; biotinylated IL-11 promoter probe 1 (AP-1 site) or probe 3 (SBE) on Streptavidin Sepharose, 4 C; Western blot with anti-V5, anti-Flag and anti-Myc

Molecule	binding (GST-Smad1 fusion protein [1])	binding (GST-Smad1 fusion protein [2])	binding (Myc-tagged Smad1)
protein kinase C (PKC)δ (from UniProt P28867 1-674) (enzyme)	binds	–	–
B1	–	binds	binds
B2	–	no binding	–
